Results published in publication PMC8397740.
These are yes or no findings as the source states them, for the method shown. In cells and extracts the contact can be indirect. Some binding calls cover weakened binding; strength is not graded here.

Chains of the proteins cited; added tags and fusions are not shown. Lines headed by an entry give the natural chain unless they say otherwise; changes in a name come on top.
UniProt P63104: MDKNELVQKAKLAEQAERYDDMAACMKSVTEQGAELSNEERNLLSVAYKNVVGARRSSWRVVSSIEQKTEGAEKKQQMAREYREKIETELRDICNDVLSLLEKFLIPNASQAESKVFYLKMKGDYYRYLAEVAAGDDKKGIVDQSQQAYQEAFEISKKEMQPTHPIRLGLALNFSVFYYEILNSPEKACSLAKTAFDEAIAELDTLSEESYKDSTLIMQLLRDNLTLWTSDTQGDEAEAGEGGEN
UniProt Q9Y4D1: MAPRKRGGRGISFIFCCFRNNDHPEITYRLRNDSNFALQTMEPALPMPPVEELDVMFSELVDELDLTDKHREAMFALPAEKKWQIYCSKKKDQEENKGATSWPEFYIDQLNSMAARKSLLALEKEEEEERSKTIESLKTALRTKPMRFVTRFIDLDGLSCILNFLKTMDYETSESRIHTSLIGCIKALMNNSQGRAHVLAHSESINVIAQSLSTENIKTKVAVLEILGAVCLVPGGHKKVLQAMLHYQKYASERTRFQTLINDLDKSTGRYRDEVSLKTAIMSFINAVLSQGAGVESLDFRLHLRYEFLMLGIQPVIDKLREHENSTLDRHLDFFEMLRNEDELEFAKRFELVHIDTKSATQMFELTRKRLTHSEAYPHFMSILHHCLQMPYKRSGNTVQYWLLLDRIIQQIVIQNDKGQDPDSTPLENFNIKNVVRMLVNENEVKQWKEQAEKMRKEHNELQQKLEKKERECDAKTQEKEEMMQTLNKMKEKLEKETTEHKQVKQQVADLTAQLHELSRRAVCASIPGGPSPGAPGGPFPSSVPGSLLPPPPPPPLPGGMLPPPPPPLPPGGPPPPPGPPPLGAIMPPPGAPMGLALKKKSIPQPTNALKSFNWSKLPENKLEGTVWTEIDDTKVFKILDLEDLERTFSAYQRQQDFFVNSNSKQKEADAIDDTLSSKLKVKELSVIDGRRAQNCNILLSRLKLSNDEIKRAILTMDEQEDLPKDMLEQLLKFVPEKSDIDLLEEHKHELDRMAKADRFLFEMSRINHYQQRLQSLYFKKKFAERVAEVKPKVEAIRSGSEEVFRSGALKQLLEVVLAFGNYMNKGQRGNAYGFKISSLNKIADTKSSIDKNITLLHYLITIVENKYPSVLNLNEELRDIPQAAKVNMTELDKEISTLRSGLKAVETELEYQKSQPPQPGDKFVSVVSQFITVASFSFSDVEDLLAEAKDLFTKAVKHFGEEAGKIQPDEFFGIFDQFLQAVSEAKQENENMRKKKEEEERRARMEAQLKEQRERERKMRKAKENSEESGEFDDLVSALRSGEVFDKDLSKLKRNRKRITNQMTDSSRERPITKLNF

Key:
[1] = molecular target: GFP-tagged YWHAZ (tyrosine 3-monooxygenase/tryptophan 5-monooxygenase activation protein zeta) (UniProt P63104); assay: co-IP; MCF-7 and MDA-MB-231 cells expressing FLAG-DAAM1 and GFP-YWHAZ, lysed in NP-40 buffer; anti-FLAG or anti-GFP antibody (normal rabbit IgG as control) at 4 °C overnight, protein A/G agarose beads; immunoblotting
[2] = molecular target: FLAG-full-DAAM1 (Dishevelled-associated activator of morphogenesis 1) (UniProt Q9Y4D1); assay: as above
FLAG-DAAM1-Y652F = FLAG-DAAM1-Y652F (UniProt Q9Y4D1); assay: co-IP; DAAM1-Y652F and full-length YWHAZ constructs transfected (Fig. S1); cells and precipitating antibody not stated

| binding [1] | binding [2] | binding (FLAG-DAAM1-Y652F) | Substance |
| --- | --- | --- | --- |
| binds |  |  | FLAG-full-DAAM1 (Dishevelled-associated activator of morphogenesis 1) (from UniProt Q9Y4D1 1-1078) |
|  | binds | binds | GFP-tagged YWHAZ (tyrosine 3-monooxygenase/tryptophan 5-monooxygenase activation protein zeta) (from UniProt P63104 1-245) |
